Results are given in words; binding and its absence hold for the method and conditions named. In cells and extracts the contact can be indirect. A result given as binding can be weak or reduced; the word gives no strength. Sequences can lack the tags named with a protein.
Biological target: Flag-VP2 (pXJ40-Flag-VP2, full-length MVC VP2) (Minute Virus of Canines (MVC))
Assay: co-IP; lysates of COS-1 cells co-transfected with an HA-tagged plasmid and pXJ40-Flag-VP2; IP with mouse anti-Flag or rabbit anti-HA antibody or IgG, protein A/G agarose, 4 °C; Western blot; done in both directions

B1: HA-tagged Occludin (pCMV-HA-Occludin) (protein, UniProt Q28269 1-521)
chain: MSSRPFESPPPYRPDEFKPNHYAPSNDVYGGDMHVRPMLSQPAYSFYPEDEILHFYKWTSPPGVIRILSMLVIVMCIAIFGCVASTLAWDRGYGTGLMGGSIGYPYGSGFGSYGTGYGYGFGYGYGYGGYTDPRAAKGFLLAMVAFCFIAALVIFVTSVIRSDISRTRRYYLTVIILSAFLGVMMFIATIVYIMGVNPTAQASGSLYSSQIYAMCNQFYASTATGLYMDQYLYHYCVVDPQEAIAIVLGFMVIVAFALIIFFAVKTRRKMDRYDKSNILWDKEHIYDEQPPNVEEWVKNVSAGTQDMPPPPSDYVERVDSPMAYSSNGKVNDKRLYPESSYKSTPVPEVVQELPATSPADDFRQPRYSSSGHLEPPSKRAPSKGRTGRPKRLEQDHYETDYTTGGESCDELEEDWIREYPPITSDQQRQLYKRNFDTGLQEYKSLQAELDEINKELSRLDKELDDYREESEEYMAAADEYNRLKQVKGSPDYKNKRNYCKQLKSKLSHIKKMVGDYDRQKT
  binding: binds

From article PMC11944487
